Consider two substances from PMC3531493, “Inhibition of a NEDD8 Cascade Restores Restriction of HIV by APOBEC3G” (PLoS Pathogens, 2012).

Protein sequences, listed by entry. Tags and fused reporters are not part of them. Lines headed by an entry give the natural chain unless they say otherwise; changes in a name come on top. Residues count along the entry.
UniProt Q9UBF6, residues 44-113: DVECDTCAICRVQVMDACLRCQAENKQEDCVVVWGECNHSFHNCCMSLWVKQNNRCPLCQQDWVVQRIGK
UniProt Q969M7: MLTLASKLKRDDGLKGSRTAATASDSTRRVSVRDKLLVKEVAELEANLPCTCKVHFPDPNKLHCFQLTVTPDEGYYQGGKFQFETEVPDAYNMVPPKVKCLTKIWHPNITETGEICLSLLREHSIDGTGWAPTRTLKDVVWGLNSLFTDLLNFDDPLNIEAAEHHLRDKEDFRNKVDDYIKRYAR

This experiment concerns the target RBX2 RING domain (44-113) (UniProt Q9UBF6). As to the kind of experiment: NMR titration; 15N-HSQC of 50 µM 15N-labelled RBX2 RING with unlabelled E2 added (∼100 µM in Fig. 3D; increasing concentrations in Fig. 5D); 20°C; 100 mM NaCl, 1 mM DTT, 25 mM HEPES pH 7.5; both purified.

These are yes or no findings as the source states them, for the method shown. Binding calls can cover weak binding; strength is not graded here.

Take “UBE2F (N92A) (from UniProt Q969M7) (enzyme)”: the binding entry is reported as “no binding”.
With “UBE2F (ΔLoop) (from UniProt Q969M7) (enzyme)” the entry was “binds”.
